Amino acid sequences for entries named in this document (tags omitted). A change or cut given only in a name is not applied to a line headed by its entry.
UniProt C7C422: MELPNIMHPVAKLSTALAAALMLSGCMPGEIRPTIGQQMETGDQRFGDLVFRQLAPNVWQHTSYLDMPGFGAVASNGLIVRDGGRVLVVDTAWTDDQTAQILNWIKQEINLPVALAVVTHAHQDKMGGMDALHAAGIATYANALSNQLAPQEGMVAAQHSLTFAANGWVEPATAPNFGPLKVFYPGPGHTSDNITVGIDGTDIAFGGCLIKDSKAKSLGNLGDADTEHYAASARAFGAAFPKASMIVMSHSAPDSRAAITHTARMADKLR

Out of some 6,900 compounds screened, fewer than 10 were called active. Calls come from the whole dose curve; as a rule, active = well fitted curve in the direction sought with a large enough effect; inconclusive = small, poorly fitted or top-dose-only effect, or another doubt; inactive = no such curve, though single readings can be large or run the other way. This is one part of the list.
Each compound was assayed against Metallo-beta-lactamase type 2 (Klebsiella pneumoniae) (UniProt C7C422) (assay: qHTS to identify inhibitors of the New Delhi Metallo-beta-lactamase (NDM): primary screen against the NCATS Gemini Collection). Details: NDM-1 enzyme, meropenem hydrolysis, absorbance 300 nm; at 38.4 µM (top of the series) unless noted.
In short: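 NDM-1 at 2 nM final in 50 mM HEPES pH 7.0, 1 uM ZnSO4, 0.01% Tween20, preincubated >30 min with compound. Meropenem 50 uM final added; absorbance at 300 nm after 30 min.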
In the case of `O=C(CCc1ccccc1)N1CC(Oc2ccccc2-c2nc(-c3ccccc3)no2)C1`, the activity % (negative = inhibition) is reported as inactive: 7.45%. For `CC(=O)NC1(C)CCN(Cc2cccc(-c3ccc4c(ccn4C)c3)c2)C1` (stereo not drawn), the activity % (negative = inhibition) was inactive: 0.486% [at 57.5 µM]. In the case of `Cn1nccc1-c1cc2c(cn1)CN(Cc1ccncc1)CCN2`, the activity % (negative = inhibition) is reported as inactive: 9.19% [at 57.5 µM]. With `Cc1cccc(CC(=O)N2CCCn3cc(-c4cccc(C#N)c4)nc32)c1` the activity % (negative = inhibition) was inactive: 11.8%. `CCCc1noc(-c2cccn3c(CNC(=O)c4ccc(OCC)cc4)nnc23)n1` was tested, and the activity % (negative = inhibition) was inactive: 1.32%. In the case of `CN(C)C(=O)c1nc2sccn2c1Br`, the activity % (negative = inhibition) is reported as inactive: 2.33% [at 57.5 µM]. In the case of `CN(CC1CCOC1)C(=O)NCc1ccc(F)cc1` (stereo not drawn), the activity % (negative = inhibition) is reported as inactive: -1.01%. For `O=C(CN1CCOC1=O)N1CCn2nc(C(O)Cc3ccccc3)cc2C1` (stereo not drawn), the activity % (negative = inhibition) was inactive: 34.2%. In the case of `O=C(NC1CCCCC1)O[C@@H]1CO[C@H]2[C@@H]1OC[C@@H]2n1nnnc1SCc1ccco1`, the activity % (negative = inhibition) is reported as inactive: 101%. For `CN(Cc1nc(-c2ccccc2)cs1)C(=O)c1cccc(-n2cnnc2)c1`, the activity % (negative = inhibition) was inactive: 0.0622%. For `CCOc1ccccc1NC(=O)N1CCCCC1CCn1cc(C(=O)NCC2CC2)nn1` (stereo not drawn), the activity % (negative = inhibition) was inactive: 4.32%. For `O=C(O)[C@@H]1CN(C(=O)Cc2ccc(O)cc2)C[C@H]1c1cccc(F)c1`, the activity % (negative = inhibition) was inactive: 15.3%. With `Cc1ccc(S(=O)(=O)NC[C@H]2OC[C@@H](N(C)C)[C@@H]2O)cc1` the activity % (negative = inhibition) was inactive: -1.2% [at 57.5 µM]. For `COc1ccc(OC)c(CN2CCNc3cc(-c4ccnc(C)c4)ncc3C2)c1`, the activity % (negative = inhibition) was inactive: 9.57% [at 57.5 µM]. With `CCn1nc(C(C)C)cc1C(=O)N1C[C@@H]2CCN(C)C[C@]2(C(=O)O)C1` the activity % (negative = inhibition) was inactive: 1.2%. In the case of `Cc1csc(NC(=O)[C@@H]2C[C@@H](c3ccc(F)cc3)N([S+](=O)([O-])c3cccnc3)C2)n1`, the activity % (negative = inhibition) is reported as inactive: 0.162%. With `O=C1CN(CC(=O)N2CCC3(CC2)OCCCC3O)C(=O)N1` (stereo not drawn) the activity % (negative = inhibition) was inactive: -0.195%. In the case of `Cc1ccc(-n2ncc3c2CC(C)(C)CC3NS(=O)(=O)c2cn(C)cn2)cc1` (stereo not drawn), the activity % (negative = inhibition) is reported as inactive: 1.82%. With `c1ccc(-c2cc3c(cn2)NCCN(CC2CC2)C3)cc1` the activity % (negative = inhibition) was inactive: 46.1% [at 77.1 µM]. With `Cn1ccc(C(=O)NCc2nnc3n2C(C(=O)NCC2CC2)CC3)n1` (stereo not drawn) the activity % (negative = inhibition) was inactive: 4.06%. For `Cn1nccc1C(=O)N1CCCC(c2nc(-c3ccccc3)no2)CCNC(=O)CC1` (stereo not drawn), the activity % (negative = inhibition) was inactive: 12.1%. With `Cc1ccccc1[C@H]1C[C@@H](O)[C@@H](O)[C@@H]1NC(=O)c1c(-c2ccccc2)noc1C` the activity % (negative = inhibition) was inactive: -2.08% [at 57.5 µM]. With `Cc1cccc(CNC(=O)C2CCc3sc(C(=O)N4CCOCC4)cc3C2)c1` (stereo not drawn) the activity % (negative = inhibition) was inactive: 8.54%. `NC(=O)[C@@H]1CCCN1C(=O)c1ccc2oc(-c3cccc(F)c3)nc2c1` was tested, and the activity % (negative = inhibition) was inactive: 0.0424%. In the case of `NCC(=O)N1CCC2(CC1)C(=O)NCN2C(=O)c1ccc(Cl)cc1`, the activity % (negative = inhibition) is reported as inactive: 4.53%. `O=C1CCN(C(=O)[C@@H]2CCCN2C(=O)Nc2ccccc2)CCCCCCN1` was tested, and the activity % (negative = inhibition) was inactive: -1.52%. With `CN(C)CCN(C)[C@H]1[C@@H]2OC[C@@H](O2)[C@@H](NCc2ccc(N(C)C)cc2)[C@@H]1O` the activity % (negative = inhibition) was inactive: 11.5% [at 57.5 µM]. `O=C(NC1CCCCCC1)c1ccc2c(c1)CC(=O)N2Cc1cccc(F)c1` was tested, and the activity % (negative = inhibition) was inactive: 21.3%. For `Cc1nn(C)c(C)c1S(=O)(=O)NCCc1noc(-c2cccnc2)n1`, the activity % (negative = inhibition) was inactive: -3.56%. In the case of `Cc1noc(C)c1-c1cc2c(cc(C)n2CCN(C)C)c(Nc2ccncn2)n1`, the activity % (negative = inhibition) is reported as inactive: 17.6% [at 57.5 µM]. In the case of `Cc1cc(C(F)(F)F)nc(CNc2cc(C3CC(O)C3)nc(N)n2)n1` (stereo not drawn), the activity % (negative = inhibition) is reported as inactive: 1.44%. In the case of `Cc1nn(C)c(C)c1CCN(C)C(=O)C1CCN(C(=O)N2CC3CC(C2)[C@H]2CCCC(=O)N2C3)CC1` (stereo partly drawn), the activity % (negative = inhibition) is reported as inactive: 9.81%. `COc1ccc(N2CCN(C(=O)c3cc4c(s3)CN(C3CCCC3)C4)CC2)cc1` was tested, and the activity % (negative = inhibition) was inactive: -2.91%. In the case of `CCCN1CCN(C(=O)c2ccc3c(c2)n(CC)c(=O)c2ccnn23)CC1`, the activity % (negative = inhibition) is reported as inactive: 5.48%. `Cc1ccc(S(=O)(=O)Nc2ccc3c(c2)CN(CCc2ccc(F)cc2)C(=O)C(C)O3)cc1F` (stereo not drawn) was tested, and the activity % (negative = inhibition) was inactive: 3.65%. For `COc1ccc(C(=O)NC[C@@H]2CC[C@H]3C[C@@H]2C3(C)C)cc1`, the activity % (negative = inhibition) was inactive: -4.6% [at 57.5 µM]. With `OC[C@@H]1CNC[C@H]1c1nc(-c2ccncc2)no1` the activity % (negative = inhibition) was inactive: 25.5%. With `O=C(NCc1cc(F)ccc1F)[C@@H]1CNC[C@H]1COc1cccnc1` the activity % (negative = inhibition) was inactive: 9.81%. In the case of `CN(C)Cc1cn(C[C@H]2C[C@@H](NS(=O)(=O)c3ccccc3)[C@H](O)[C@@H]2O)nn1`, the activity % (negative = inhibition) is reported as inactive: -0.515% [at 57.5 µM]. In the case of `COc1ccccc1N1CCN(CC[C@@H]2CC[C@H](O)[C@@H](C(=O)Nc3ccccc3)O2)CC1`, the activity % (negative = inhibition) is reported as inactive: 7.34%. With `CN(Cc1cccs1)Cc1cccn1C` the activity % (negative = inhibition) was inactive: 8.99% [at 115 µM]. For `O=C(CNC(=O)c1ccc(-c2cccc(C(F)(F)F)c2)cc1)NCC(F)(F)F`, the activity % (negative = inhibition) was inactive: 2.39%. `CCCCc1nn(CC(=O)N2CCOC(c3ccccc3)C2)c(=O)n1CC` (stereo not drawn) was tested, and the activity % (negative = inhibition) was inactive: -0.729%. For `CC(C)NC(=O)NC[C@H]1OC[C@@H](NCc2ncc[nH]2)[C@@H]1O`, the activity % (negative = inhibition) was inactive: -0.444% [at 57.5 µM]. In the case of `CCN(C1CCOCC1)C1CN(C(=O)c2ccccn2)C1`, the activity % (negative = inhibition) is reported as inactive: 5.74%. `COCCn1nnnc1C1CC2(CCOCC2)C(=O)N1CCc1ccc(OC)c(OC)c1` (stereo not drawn) was tested, and the activity % (negative = inhibition) was inactive: -3.87%. `O=C(c1ccsc1)N1CCc2c(nc3cc[nH]n3c2=O)C1` was tested, and the activity % (negative = inhibition) was inactive: 1.33%. For `Cc1ccc(C2=NC3(CCN(C(=O)COc4cccc(C)c4)CC3)ON2)cc1`, the activity % (negative = inhibition) was inactive: 2.18%. For `Cc1ccc(C(=O)N2C[C@@H](CN3CCOCC3)[C@@H](CO)C2)cc1O`, the activity % (negative = inhibition) was inactive: 34.9%. In the case of `CCCn1ncc(C(=O)NCC2(O)CCCNC2)c1C` (stereo not drawn), the activity % (negative = inhibition) is reported as inactive: 8.69%. For `O=C(Nc1ccc(Oc2cccnc2)cc1)C1CCN(CCCc2ccccc2)CC1`, the activity % (negative = inhibition) was inactive: -5.62%. `Cc1ccc(S(=O)(=O)N(C)C2CCc3ccccc32)cc1` (stereo not drawn) was tested, and the activity % (negative = inhibition) was inactive: 2.91% [at 57.5 µM]. For `COCc1nnc2n1CCC(NC(=O)Cn1nc(C(F)(F)F)cc1C)CC2` (stereo not drawn), the activity % (negative = inhibition) was inactive: -0.452%.

Source: PubChem BioAssay AID1794845 (National Center for Advancing Translational Sciences (NCATS), 2023)
Note: % of control where 0% means no effect.
